Source: the supplement of paper PMC4604168 (melanoma cell lines)
The other results are listed elsewhere or left out. Repeats are few or missing, and single values can be far off.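 The apoptosis fraction was the count of cleaved-PARP antibody-stained nuclei relative to all DNA-stained nuclei, imaged in 1,536-well plates. Screening doses were set so most cells survived, and baseline and induced cleaved-PARP levels vary greatly across cell lines.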

Key:
Experiment in all cases: cleaved PARP positive nuclei fraction relative to DMSO control; melanoma cells; higher = more apoptosis
Settings in all cases: library dose: low library concentration; 72 h
501Mel = tested on: 501Mel
A101D = tested on: A101D
A2058 = tested on: A2058
C32 = tested on: C32
CBRC008 = tested on: CBRC008 (line from a melanoma biopsy)
CBRC014 = tested on: CBRC014 (line from a melanoma biopsy)
CBRC016 = tested on: CBRC016 (line from a melanoma biopsy)
CBRC017 = tested on: CBRC017 (line from a melanoma biopsy)
COLO792 = tested on: COLO792
COLO800 = tested on: COLO800
COLO829 = tested on: COLO829
G361 = tested on: G361
IPC-298 = tested on: IPC-298
IST-MEL1 = tested on: IST-MEL1
LB2518-MEL = tested on: LB2518-MEL
LOXIMVI = tested on: LOXIMVI
A375 = tested on: A375
CBRC034 = tested on: CBRC034 (line from a melanoma biopsy)
MEL-HO = tested on: MEL-HO

Row | SMILES | cleaved PARP positive nuclei fraction (501Mel) [%] | cleaved PARP positive nuclei fraction (A101D) [%] | cleaved PARP positive nuclei fraction (A2058) [%] | cleaved PARP positive nuclei fraction (C32) [%] | cleaved PARP positive nuclei fraction (CBRC008) [%] | cleaved PARP positive nuclei fraction (CBRC014) [%] | cleaved PARP positive nuclei fraction (CBRC016) [%] | cleaved PARP positive nuclei fraction (CBRC017) [%] | cleaved PARP positive nuclei fraction (COLO792) [%] | cleaved PARP positive nuclei fraction (COLO800) [%] | cleaved PARP positive nuclei fraction (COLO829) [%] | cleaved PARP positive nuclei fraction (G361) [%] | cleaved PARP positive nuclei fraction (IPC-298) [%] | cleaved PARP positive nuclei fraction (IST-MEL1) [%] | cleaved PARP positive nuclei fraction (LB2518-MEL) [%] | cleaved PARP positive nuclei fraction (LOXIMVI) [%] | cleaved PARP positive nuclei fraction (A375) [%] | cleaved PARP positive nuclei fraction (CBRC034) [%] | cleaved PARP positive nuclei fraction (MEL-HO) [%]
1 | NC1(c2ccc(-c3nc4ccn5c(=O)[nH]nc5c4cc3-c3ccccc3)cc2)CCC1 + COC(=O)c1sccc1S(=O)(=O)Nc1ccc(Nc2ccccc2)cc1OC [GSK0660] (first compound 0.4 µM, partner dose 1 µM) | 81.1 | 15.5 | 86.9 | 47.5 | 62.2 | 75.9 | 58.4 | 74.2 | 223 | 74.7 | 95.8 | 65.7 | 143 | 138 | 78.7 | 176 | – | – | –
2 | CS(=O)(=O)c1ccc(C(=O)Nc2ccc(Cl)c(-c3ccccn3)c2)c(Cl)c1 [vismodegib] + Oc1nc(-c2ccc(C(F)(F)F)cc2)nc2c1CSCC2 [XAV939] (first compound 1 µM, partner dose 2 µM) | 63.6 | 16.6 | 213 | 83.1 | 158 | 89.3 | 59.3 | 71.8 | 112 | 50.2 | 51.9 | 142 | 48.3 | 61 | 73.6 | 49.5 | – | – | –
3 | Cn1cnc2c(F)c(Nc3ccc(Br)cc3Cl)c(C(=O)NOCCO)cc21 [selumetinib] + O=C(O)c1ccc2c(c1)nc(Nc1cccc(Cl)c1)c1ccncc12 [CX4945] (first compound 0.015 µM, partner dose 0.4 µM) | – | 104 | 79.2 | 82.9 | 257 | 102 | 203 | 320 | 103 | 143 | 102 | 144 | 277 | 32.1 | – | 160 | 139 | 98.6 | 170
4 | C[C@]1(O)C[C@@H](c2nc(-c3ccc4ccc(-c5ccccc5)nc4c3)c3c(N)nccn32)C1 + Cn1cc(/C=C2\C(=O)Nc3cccnc32)c2ccccc21 [GW441756] (first compound 0.4 µM, partner dose 0.4 µM) | – | 26.5 | 164 | 30.5 | 140 | 99.1 | 60.6 | 92.9 | 129 | 155 | 154 | 112 | 43.9 | 39.8 | – | 389 | – | – | –
5 | NC(=O)c1ccc(N(C(N)=O)c2c(F)cccc2F)nc1-c1ccc(F)cc1F + Oc1nc(-c2ccc(C(F)(F)F)cc2)nc2c1CSCC2 [XAV939] (first compound 0.4 µM, partner dose 2 µM) | – | 29.6 | 98.9 | 147 | 98.8 | 101 | 32.5 | 147 | 235 | 91.5 | 83.7 | 73.3 | 45.1 | 327 | – | 56.2 | – | – | –
6 | NC(=O)c1ccc(N(C(N)=O)c2c(F)cccc2F)nc1-c1ccc(F)cc1F + CC(C)CCN1c2nc(Nc3cc(F)c(O)c(F)c3)ncc2N(C)C(=O)C1C [BID1870] (first compound 0.4 µM, partner dose 0.2 µM) | – | 33.8 | 66.5 | 43.6 | 99.7 | 93.7 | 75.7 | 115 | 51.8 | 36.5 | 156 | 94.1 | 48.1 | 137 | – | 492 | – | – | –
7 | NC(=O)c1ccc(N(C(N)=O)c2c(F)cccc2F)nc1-c1ccc(F)cc1F + CCc1ccc(CCOc2ccc(CC3SC(=O)NC3=O)cc2)nc1 [pioglitazone] (first compound 0.4 µM, partner dose 2 µM) | – | 44.8 | 77.5 | 35.7 | 27.9 | 91 | 61.4 | 86.6 | 131 | 51 | 126 | 46.7 | 44.4 | 124 | – | 53.5 | – | – | –
8 | CCCCCCCCc1ccc(CCC(N)(CO)CO)cc1 [fingolimod] + CN(c1ncccc1CNc1nc(Nc2ccc3c(c2)CC(=O)N3)ncc1C(F)(F)F)S(C)(=O)=O [PF562271] (first compound 2 µM, partner dose 0.08 µM) | – | 94.6 | 165 | 176 | 23.7 | 134 | 17.6 | 113 | 126 | 152 | 90.4 | 90 | 171 | 59.8 | – | 208 | 802 | 30.3 | 208
9 | CCN(CC)CCNC(=O)c1c(C)[nH]c(/C=C2\C(=O)Nc3ccc(F)cc32)c1C [sunitinib] + O=C(Nc1ccccc1)c1cc([N+](=O)[O-])ccc1Cl [GW9662] (first compound 0.4 µM, partner dose 2 µM) | – | 33.6 | 88.3 | 129 | 69.4 | 82.7 | 93 | 68.7 | 138 | 163 | 76.3 | 66.6 | 88.4 | 141 | – | 87.9 | – | – | –
10 | CN(c1ncccc1CNc1nc(Nc2ccc3c(c2)CC(=O)N3)ncc1C(F)(F)F)S(C)(=O)=O + COCC[n+]1c2c(n(Cc3cnccn3)c1C)C(=O)c1ccccc1C2=O [YM155] (first compound 0.08 µM, partner dose 0.0004 µM) | – | 53.9 | 114 | 98.8 | 281 | 111 | 107 | 109 | 85.9 | 86.7 | 119 | 48.5 | 182 | 135 | – | 148 | 163 | 108 | 167
11 | Cn1sc(=O)n(Cc2ccccc2)c1=O + O=C(O)[C@@H]1[O][Sb](=[O])([O][Sb]2(=[O])[O][C@H]([C@H](O)CO)[C@H](O)[C@H](C(=O)O)[O]2)[O][C@H]([C@H](O)CO)[C@@H]1O [stibogluconate] (first compound 0.4 µM, partner dose 2 µM) | – | 91.3 | 132 | 44.3 | 155 | 76 | 22.9 | 136 | 69.3 | 131 | 93.1 | 118 | 90.1 | 182 | – | 704 | 167 | 47 | 72.9
12 | CCN(CC)CCNC(=O)c1c(C)[nH]c(/C=C2\C(=O)Nc3ccc(F)cc32)c1C [sunitinib] + O=C(O)C(=O)Nc1sc2c(c1C(=O)O)CCNC2 [TCS401] (first compound 0.4 µM, partner dose 1.66667 µM) | – | 33.4 | 71.1 | 85 | 198 | 83.3 | 127 | 128 | 99.6 | 183 | 56.3 | 127 | 48.1 | 61.3 | – | 171 | – | – | –
13 | CCN(CC)CCNC(=O)c1c(C)[nH]c(/C=C2\C(=O)Nc3ccc(F)cc32)c1C [sunitinib] + CS(=O)(=O)CCNCc1ccc(-c2ccc3ncnc(Nc4ccc(OCc5cccc(F)c5)c(Cl)c4)c3c2)o1 [lapatinib] (first compound 0.4 µM, partner dose 0.8 µM) | – | 224 | 137 | 81.4 | 173 | 79.1 | 75 | 220 | 184 | 83.7 | 88.9 | 97.6 | 88.2 | 41.9 | – | 80.6 | 520 | 26.9 | 23.3
14 | Cn1cnc2c(F)c(Nc3ccc(Br)cc3Cl)c(C(=O)NOCCO)cc21 [selumetinib] + Cc1cc([N+](=O)[O-])ccc1NS(=O)(=O)c1cc(Cl)ccc1Cl [FH535] (first compound 0.015 µM, partner dose 1 µM) | – | 32.9 | 79.9 | 194 | 424 | 120 | 314 | 523 | 163 | 71.8 | 206 | 241 | 206 | 175 | – | 102 | – | – | –
15 | Cn1cnc2c(F)c(Nc3ccc(Br)cc3Cl)c(C(=O)NOCCO)cc21 [selumetinib] + COc1cc(N2CCC(N3CCN(C)CC3)CC2)ccc1Nc1ncc(Cl)c(Nc2ccccc2S(=O)(=O)C(C)C)n1 [NVP-TAE684] (first compound 0.015 µM, partner dose 0.08 µM) | – | 40.5 | 58.7 | 198 | 77.3 | 105 | 22.2 | 447 | 52.1 | 65.9 | 171 | 33.9 | 130 | 109 | – | 139 | – | – | –
16 | CN(c1ncccc1CNc1nc(Nc2ccc3c(c2)CC(=O)N3)ncc1C(F)(F)F)S(C)(=O)=O + CC(=O)c1c(C)c2cnc(Nc3ccc(N4CCNCC4)cn3)nc2n(C2CCCC2)c1=O [palbociclib] (first compound 0.08 µM, partner dose 0.04 µM) | – | 39.6 | 218 | 108 | 44.7 | 123 | 72.6 | 94.4 | 17.3 | 64.9 | 133 | 67.7 | 188 | 135 | – | 200 | 497 | 66.9 | 145
17 | C[C@]1(O)C[C@@H](c2nc(-c3ccc4ccc(-c5ccccc5)nc4c3)c3c(N)nccn32)C1 + COc1ccc(-c2ccc3c(N4CCOCC4)nc(N4C[C@@H](C)O[C@@H](C)C4)nc3n2)cc1CO [KU0063794] (first compound 0.4 µM, partner dose 0.02 µM) | – | 20 | 82.2 | 82.3 | 117 | 95 | 75.5 | 158 | 118 | 174 | 94.1 | 100 | 67.6 | 78.4 | – | 247 | – | – | –
18 | Cn1sc(=O)n(Cc2ccccc2)c1=O + C=CCNC1=C2C[C@@H](C)C[C@H](OC)[C@H](O)[C@@H](C)/C=C(\C)[C@H](OC(N)=O)[C@@H](OC)/C=C\C=C(/C)C(=O)NC(=CC1=O)C2=O [Tanespimycin] (first compound 0.4 µM, partner dose 0.002 µM) | – | 98.9 | 57.1 | 85.4 | 167 | 81.1 | 61.5 | 84.1 | 97.9 | 76.2 | 69.5 | 97.5 | 89.4 | 127 | – | 165 | 59.6 | 89 | 79
19 | CC1(C)CCC(c2ccc(Cl)cc2)=C(CN2CCN(c3ccc(C(=O)NS(=O)(=O)c4ccc(N[C@H](CCN5CCOCC5)CSc5ccccc5)c(S(=O)(=O)C(F)(F)F)c4)cc3)CC2)C1 + Nc1nc(F)nc2c1ncn2[C@@H]1O[C@H](CO)[C@@H](O)[C@@H]1O [fludarabine] (first compound 0.4 µM, partner dose 0.2 µM) | – | 212 | 453 | 544 | 325 | 511 | 630 | 365 | 449 | 197 | 82.4 | 157 | 179 | 83.3 | – | 310 | 4660 | 153 | 155

Whole records, quoted from the list. Values in the order: cleaved PARP positive nuclei fraction (501Mel) [%] | cleaved PARP positive nuclei fraction (A101D) [%] | cleaved PARP positive nuclei fraction (A2058) [%] | cleaved PARP positive nuclei fraction (C32) [%] | cleaved PARP positive nuclei fraction (CBRC008) [%] | cleaved PARP positive nuclei fraction (CBRC014) [%] | cleaved PARP positive nuclei fraction (CBRC016) [%] | cleaved PARP positive nuclei fraction (CBRC017) [%] | cleaved PARP positive nuclei fraction (COLO792) [%] | cleaved PARP positive nuclei fraction (COLO800) [%] | cleaved PARP positive nuclei fraction (COLO829) [%] | cleaved PARP positive nuclei fraction (G361) [%] | cleaved PARP positive nuclei fraction (IPC-298) [%] | cleaved PARP positive nuclei fraction (IST-MEL1) [%] | cleaved PARP positive nuclei fraction (LB2518-MEL) [%] | cleaved PARP positive nuclei fraction (LOXIMVI) [%] | cleaved PARP positive nuclei fraction (A375) [%] | cleaved PARP positive nuclei fraction (CBRC034) [%] | cleaved PARP positive nuclei fraction (MEL-HO) [%]
CN(c1ncccc1CNc1nc(Nc2ccc3c(c2)CC(=O)N3)ncc1C(F)(F)F)S(C)(=O)=O + COCC[n+]1c2c(n(Cc3cnccn3)c1C)C(=O)c1ccccc1C2=O [YM155] (first compound 0.08 µM, partner dose 0.0004 µM) reads – | 53.9 | 114 | 98.8 | 281 | 111 | 107 | 109 | 85.9 | 86.7 | 119 | 48.5 | 182 | 135 | – | 148 | 163 | 108 | 167
Cn1cnc2c(F)c(Nc3ccc(Br)cc3Cl)c(C(=O)NOCCO)cc21 [selumetinib] + Cc1cc([N+](=O)[O-])ccc1NS(=O)(=O)c1cc(Cl)ccc1Cl [FH535] (first compound 0.015 µM, partner dose 1 µM) reads – | 32.9 | 79.9 | 194 | 424 | 120 | 314 | 523 | 163 | 71.8 | 206 | 241 | 206 | 175 | – | 102 | – | – | –
